Reference: patent publication US8772266B2, “Fungicide pyrazole carboxamides derivates” (Bayer Cropscience AG, priority 2009, dated 2014)
Some of these results come from one statement about several compounds together.

Assays:
Puccinia recondita = experiment: In vivo preventive test on Puccinia recondita (wheat); conditions: 500 ppm of active ingredient, evaluated 7-9 days after inoculation
Sphaerotheca fuliginea = experiment: In vivo preventive test on Sphaerotheca fuliginea (cucumber), Example L; conditions: 500 ppm of active ingredient, evaluated 7 days after inoculation
Leptosphaeria nodorum = experiment: In vivo preventive test on Leptosphaeria nodorum (wheat); conditions: 500 ppm of active ingredient, evaluated 7-9 days after inoculation
Venturia inaequalis = experiment: In vivo preventive test on Venturia inaequalis (apple scab); conditions: 10 ppm of active ingredient, evaluated 10 days after inoculation
Pyrenophora teres = experiment: In vivo preventive test on Pyrenophora teres (barley); conditions: 500 ppm of active ingredient, evaluated 7-9 days after inoculation
Botrytis cinerea = experiment: In vivo preventive test on Botrytis cinerea (beans); conditions: 100 ppm of active ingredient, evaluated 2 days after inoculation
Alternaria solani = experiment: In vivo preventive test on Alternaria solani (tomato); conditions: 500 ppm of active ingredient, evaluated 7 days after inoculation

Row | Structure (SMILES) | disease control (Puccinia recondita) | disease control (Sphaerotheca fuliginea) | disease control (Leptosphaeria nodorum) | disease control (Venturia inaequalis) | disease control (Pyrenophora teres) | disease control (Botrytis cinerea) | disease control (Alternaria solani)
1 | CCc1cccc(CC)c1CN(C(=O)c1c(C(F)F)nn(C)c1F)C1CC1 [Example 88] | at least 70% | at least 70% | at least 70% | at least 70% | at least 70% | at least 90% | at least 70%
2 | CCCCc1ccc(Cl)cc1CN(C(=O)c1c(C(F)F)nn(C)c1F)C1CC1 [Example 119] | at least 70% | at least 70% | at least 70% | at least 70% | at least 70% | at least 90% | at least 70%
3 | Cn1nc(C(F)F)c(C(=O)N(Cc2cc(Cl)ccc2C2CCCC2)C2CC2)c1F [Example 140] | at least 70% | at least 70% | at least 70% | at least 70% | at least 70% | at least 90% | at least 70%
4 | CC(c1ccccc1)N(C(=O)c1c(C(F)F)nn(C)c1F)C1CC1 (centres unmarked) [Example 95] | at least 70% | at least 70% | at least 70% | at least 70% | at least 70% | at least 90% | at least 70%
5 | Cn1nc(C(F)F)c(C(=S)N(Cc2c(Cl)cccc2C(F)(F)F)C2CC2)c1F [Example 132] | at least 70% | at least 70% | at least 70% | at least 70% | at least 70% | at least 90% | at least 70%
6 | CCc1ccc(F)cc1CN(C(=O)c1c(C(F)F)nn(C)c1F)C1CC1 [Example 114] | at least 70% | at least 70% | at least 70% | at least 70% | at least 70% | at least 90% | at least 70%
7 | CC(C)Cc1cccc(F)c1CN(C(=O)c1c(C(F)F)nn(C)c1F)C1CC1 [Example 127] | at least 70% | at least 70% | at least 70% | at least 70% | at least 70% | at least 90% | at least 70%
8 | CC(C)Cc1ccc(F)cc1CN(C(=O)c1c(C(F)F)nn(C)c1F)C1CC1 [Example 122] | at least 70% | at least 70% | at least 70% | at least 70% | at least 70% | at least 90% | at least 70%
9 | Cn1nc(C(F)F)c(C(=O)N(Cc2cc(F)ccc2C2CC2)C2CC2)c1F [Example 123] | at least 70% | at least 70% | at least 70% | at least 70% | at least 70% | at least 90% | at least 70%
10 | CCc1ccc(Cl)cc1CN(C(=O)c1c(C(F)F)nn(C)c1F)C1CC1 [Example 125] | at least 70% | at least 70% | at least 70% | at least 70% | at least 70% | at least 90% | at least 70%
11 | CC(c1cccc(C(F)(F)c2ccccc2)c1)N(C(=O)c1c(C(F)F)nn(C)c1F)C1CC1 (centres unmarked) [Example 78] | at least 70% | at least 70% | at least 70% | at least 70% | at least 70% | at least 90% | at least 70%
12 | Cn1nc(C(F)F)c(C(=O)N(C2CC2)C2CCc3cccc(Cl)c32)c1F (centres unmarked) [Example 109] | at least 70% | at least 70% | at least 70% | at least 70% | at least 70% | at least 90% | at least 70%
13 | CCC(c1cc(Cl)cc(Cl)c1)N(C(=O)c1c(C(F)F)nn(C)c1F)C1CC1 (centres unmarked) [Example 71] | at least 70% | at least 70% | at least 70% | at least 70% | at least 70% | at least 90% | at least 70%
14 | Cn1nc(C(F)F)c(C(=O)N(Cc2cc(F)ccc2[Si](C)(C)C)C2CC2)c1F [Example 118] | at least 70% | at least 70% | at least 70% | at least 70% | at least 70% | at least 90% | at least 70%
15 | Cn1nc(C(F)F)c(C(=O)N(C2CC2)C2CC(C)(C)c3ccccc32)c1F (centres unmarked) [Example 85] | at least 70% | at least 70% | at least 70% | at least 70% | at least 70% | at least 90% | at least 70%
16 | Cn1nc(C(F)F)c(C(=O)N(Cc2c(Br)cccc2Br)C2CC2)c1F [Example 92] | at least 70% | at least 70% | at least 70% | at least 70% | at least 70% | at least 90% | at least 70%
17 | CCCCc1cccc(Cl)c1CN(C(=O)c1c(C(F)F)nn(C)c1F)C1CC1 [Example 115] | at least 70% | at least 70% | at least 70% | at least 70% | at least 70% | at least 90% | at least 70%
18 | CC(C)Cc1cccc(Cl)c1CN(C(=O)c1c(C(F)F)nn(C)c1F)C1CC1 [Example 32] | at least 70% | at least 70% | at least 70% | at least 70% | at least 70% | at least 90% | at least 70%
19 | Cn1nc(C(F)F)c(C(=O)N(Cc2c(Cl)cccc2C2CCCC2)C2CC2)c1F [Example 141] | at least 70% | at least 70% | at least 70% | at least 70% | at least 70% | at least 90% | at least 70%
20 | CC(c1ccc(C(F)(F)c2ccccc2)cc1)N(C(=O)c1c(C(F)F)nn(C)c1F)C1CC1 (centres unmarked) [Example 77] | at least 70% | at least 70% | at least 70% | at least 70% | at least 70% | at least 90% | at least 70%
21 | CC(C)Cc1ccc(Cl)cc1CN(C(=O)c1c(C(F)F)nn(C)c1F)C1CC1 [Example 120] | at least 70% | at least 70% | at least 70% | at least 70% | at least 70% | at least 90% | at least 70%
22 | CCCCc1ccc(F)cc1CN(C(=O)c1c(C(F)F)nn(C)c1F)C1CC1 [Example 121] | at least 70% | at least 70% | at least 70% | at least 70% | at least 70% | at least 90% | at least 70%
23 | CCCCc1ccc(F)c(F)c1CN(C(=O)c1c(C(F)F)nn(C)c1F)C1CC1 [Example 126] | at least 70% | at least 70% | at least 70% | at least 70% | at least 70% | at least 90% | at least 70%
24 | Cn1nc(C(F)F)c(C(=O)N(Cc2c(C(F)(F)F)ccc(F)c2C(F)(F)F)C2CC2)c1F [Example 117] | at least 70% | at least 70% | at least 70% | at least 70% | at least 70% | at least 90% | at least 70%
25 | Cn1nc(C(F)F)c(C(=O)N(Cc2ccccc2C(C)(C)C)C2CC2)c1F [Example 76] | at least 70% | at least 70% | at least 70% | at least 70% | at least 70% | at least 90% | at least 70%
26 | Cn1nc(C(F)F)c(C(=O)N(Cc2c(Cl)cccc2C2CC2)C2CC2)c1F [Example 113] | at least 70% | at least 70% | at least 70% | at least 70% | at least 70% | at least 90% | at least 70%
